Measurements as given in article doi:10.1101/2020.09.18.303016.
Where two headings read alike, the source gives them in different places. These are yes or no findings as the source states them, for the method shown. Binding seen in cells or lysates may run through a third protein. Some results given as binding are weak or reduced against the parent protein; the word gives no strength. For some assays here: Sequences can lack the tags named with a protein.

The chains behind the UniProt entries cited, without tags or fusion partners. Residues count along the entry.
UniProt P25054, residues 221-880: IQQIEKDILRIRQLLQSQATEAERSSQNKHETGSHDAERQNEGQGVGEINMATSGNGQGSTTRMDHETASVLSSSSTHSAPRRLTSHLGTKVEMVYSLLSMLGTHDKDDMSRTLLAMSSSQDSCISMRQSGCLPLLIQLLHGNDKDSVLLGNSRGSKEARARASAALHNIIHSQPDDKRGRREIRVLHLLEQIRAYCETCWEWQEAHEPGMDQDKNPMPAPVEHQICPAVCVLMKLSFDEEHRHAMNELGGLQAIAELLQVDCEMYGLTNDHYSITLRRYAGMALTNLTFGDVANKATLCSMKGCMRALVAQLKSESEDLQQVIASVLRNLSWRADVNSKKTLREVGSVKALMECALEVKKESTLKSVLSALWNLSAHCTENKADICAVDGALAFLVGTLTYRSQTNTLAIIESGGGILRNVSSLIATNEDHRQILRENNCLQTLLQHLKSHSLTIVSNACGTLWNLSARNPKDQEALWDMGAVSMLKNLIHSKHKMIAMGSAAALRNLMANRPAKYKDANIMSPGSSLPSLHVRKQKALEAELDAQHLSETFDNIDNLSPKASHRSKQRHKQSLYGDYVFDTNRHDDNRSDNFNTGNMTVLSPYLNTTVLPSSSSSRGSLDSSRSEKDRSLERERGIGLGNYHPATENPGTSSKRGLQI
UniProt O15169, residues 600-862: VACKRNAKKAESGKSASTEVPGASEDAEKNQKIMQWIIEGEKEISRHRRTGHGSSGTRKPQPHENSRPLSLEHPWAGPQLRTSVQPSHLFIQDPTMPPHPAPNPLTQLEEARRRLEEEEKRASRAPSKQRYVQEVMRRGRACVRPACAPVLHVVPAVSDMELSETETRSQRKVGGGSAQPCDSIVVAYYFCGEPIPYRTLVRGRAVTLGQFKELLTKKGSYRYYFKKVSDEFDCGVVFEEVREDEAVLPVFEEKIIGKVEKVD

B1: AURKA, in vitro transcription/translation product (HA-AURKA and FLAG-AURKA) (enzyme, UniProt O14965 1-403)
chain: MDRSKENCISGPVKATAPVGGPKRVLVTQQFPCQNPLPVNSGQAQRVLCPSNSSQRIPLQAQKLVSSHKPVQNQKQKQLQATSVPHPVSRPLNNTQKSKQPLPSAPENNPEEELASKQKNEESKKRQWALEDFEIGRPLGKGKFGNVYLAREKQSKFILALKVLFKAQLEKAGVEHQLRREVEIQSHLRHPNILRLYGYFHDATRVYLILEYAPLGTVYRELQKLSKFDEQRTATYITELANALSYCHSKRVIHRDIKPENLLLGSAGELKIADFGWSVHAPSSRRTTLCGTLDYLPPEMIEGRMHDEKVDLWSLGVLCYEFLVGKPPFEANTYQETYKRISRVEFTFPDFVTEGARDLISRLLKHNPSQRPMLREVLEHPWITANSSKPSNCQNKESASKQS

Legend:
[1] = molecular target: GST-APC-221-880 (APC arm) (human) (UniProt P25054); assay: pull-down
[2] = molecular target: GST-APC-221-880 (APC arm) (human) (UniProt P25054); assay: pull-down; remark: listed apart in the source

Molecule	binding [1]	binding [2]
FLAG-tagged AXIN1-DIX(600-862) (from UniProt O15169-1 600-862) (domain or fragment)	binds	–
B1	–	binds
